# Test results from patent publication US20210102215A1, “TREATMENT AND PREVENTION OF VIRAL INFECTION” (priority 2016, published 2021).
# For at least one compound, name, drawing or mass did not settle the structure.
# Tested on: HCV genotype 3a S52 replicon
# Details: REV-ERB agonists 20 μM with increasing DAA, 48 h (FIGS. 10f, 10g)
smiles,measurement,value
COC(=O)N[C@H](C(=O)N1CCC[C@H]1c1nc(-c2ccc(-c3ccc(-c4c[nH]c([C@@H]5CCCN5C(=O)[C@@H](NC(=O)OC)C(C)C)n4)cc3)cc2)c[nH]1)C(C)C [Daclatasvir],Combined effect of REV-ERB agonist and DAA on HCV genotype 3 replication,additive effects
